Assay in all cases: affinity purification with mass spectrometry; samples from four fly strains expressing Flag-tagged transgenes IRP1A^C450S, IRP1B^C447S, IRP1A^3R3Q or IRP1B^3R3Q; anti-Flag immunoprecipitation; tissue per sample in Supplementary Table 2
Test [1] deals with T1, transgenic Flag-tagged Drosophila IRP1A 3R3Q expressed in flies (Drosophila) (UniProt Q9VCV4).
T1 sequence: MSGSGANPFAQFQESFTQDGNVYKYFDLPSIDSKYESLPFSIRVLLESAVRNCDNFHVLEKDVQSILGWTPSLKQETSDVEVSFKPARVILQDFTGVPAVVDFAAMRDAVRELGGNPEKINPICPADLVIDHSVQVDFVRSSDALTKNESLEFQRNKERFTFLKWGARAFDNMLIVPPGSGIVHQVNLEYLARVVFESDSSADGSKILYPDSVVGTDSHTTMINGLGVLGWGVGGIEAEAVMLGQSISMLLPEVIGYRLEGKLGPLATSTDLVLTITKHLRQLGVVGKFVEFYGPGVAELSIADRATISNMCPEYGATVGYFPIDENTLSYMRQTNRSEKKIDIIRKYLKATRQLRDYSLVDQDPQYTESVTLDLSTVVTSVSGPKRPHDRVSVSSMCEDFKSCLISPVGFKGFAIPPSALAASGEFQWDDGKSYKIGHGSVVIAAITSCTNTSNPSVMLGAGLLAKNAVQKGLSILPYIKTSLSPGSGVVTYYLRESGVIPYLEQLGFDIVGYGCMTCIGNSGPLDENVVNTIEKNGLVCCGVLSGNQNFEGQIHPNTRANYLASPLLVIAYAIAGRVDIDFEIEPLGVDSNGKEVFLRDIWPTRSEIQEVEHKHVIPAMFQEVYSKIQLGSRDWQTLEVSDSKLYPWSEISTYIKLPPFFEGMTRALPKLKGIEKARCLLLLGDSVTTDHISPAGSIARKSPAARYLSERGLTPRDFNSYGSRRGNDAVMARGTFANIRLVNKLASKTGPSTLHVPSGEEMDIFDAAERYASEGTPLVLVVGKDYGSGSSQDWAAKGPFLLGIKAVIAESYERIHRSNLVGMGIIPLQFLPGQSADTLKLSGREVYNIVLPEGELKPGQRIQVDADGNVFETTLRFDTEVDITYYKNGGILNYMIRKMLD

Test [2] addresses T2, transgenic Flag-tagged Drosophila IRP1B C447S expressed in flies (Drosophila) (UniProt Q9VGZ3).
T2 sequence: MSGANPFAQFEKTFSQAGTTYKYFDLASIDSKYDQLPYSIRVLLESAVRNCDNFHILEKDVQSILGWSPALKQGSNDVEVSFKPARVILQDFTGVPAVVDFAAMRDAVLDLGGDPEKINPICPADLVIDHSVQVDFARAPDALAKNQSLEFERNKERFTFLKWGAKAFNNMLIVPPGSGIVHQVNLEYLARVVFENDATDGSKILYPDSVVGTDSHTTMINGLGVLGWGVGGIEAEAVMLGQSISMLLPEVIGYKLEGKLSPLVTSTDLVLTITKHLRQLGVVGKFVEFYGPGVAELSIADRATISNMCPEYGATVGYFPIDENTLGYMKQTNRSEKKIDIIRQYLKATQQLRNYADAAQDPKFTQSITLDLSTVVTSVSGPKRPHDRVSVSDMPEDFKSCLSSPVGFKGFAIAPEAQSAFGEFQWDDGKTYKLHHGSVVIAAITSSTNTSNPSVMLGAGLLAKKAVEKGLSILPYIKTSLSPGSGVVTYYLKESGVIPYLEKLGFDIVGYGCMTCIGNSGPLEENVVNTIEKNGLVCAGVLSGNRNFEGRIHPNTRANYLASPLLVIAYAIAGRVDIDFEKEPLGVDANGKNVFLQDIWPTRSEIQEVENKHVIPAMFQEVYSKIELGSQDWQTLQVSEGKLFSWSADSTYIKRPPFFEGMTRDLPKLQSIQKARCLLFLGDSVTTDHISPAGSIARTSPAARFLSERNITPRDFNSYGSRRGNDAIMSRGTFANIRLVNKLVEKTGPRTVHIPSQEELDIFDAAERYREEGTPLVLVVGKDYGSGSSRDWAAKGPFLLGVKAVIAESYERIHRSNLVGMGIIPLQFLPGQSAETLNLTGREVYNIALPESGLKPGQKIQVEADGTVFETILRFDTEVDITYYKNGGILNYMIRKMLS

For test [3], the target named is transgenic Flag-tagged Drosophila IRP1B 3R3Q expressed in flies (Drosophila) (UniProt Q9VGZ3).

No constants are given. Whether binding was seen depends on the method and setting. In cells and extracts the contact can be indirect. Here binding means that the protein was enriched with, or labelled near, the bait; the list need not be complete. For part of these data: No binding means not detected with the bait. For part of these data: Where a sequence is shown, tags or fusion partners need not be part of it.

B1: HA-tagged Drosophila Cisd2 (natural protein, UniProt Q9VAM6 1-133, looked up)
chain: MEPISHLVKSSLPNYLSSLPVPDSIGGWFKLSFKDWLALIPPTVVVAGLGYTAYLAYCPAARASCAAKNSGRCNNHIRKNEPKVVDMIDVEDIAEKAAFCRCWKTKNWPYCDGSHGEHNKQTGDNVGPIVIKK
notes: Drosophila Cisd2, cDNA RE49709; also called mitoNEET; Cisd2/mitoNEET; source: S2 cells, transfected, in lysate
Consider B1, for which the binding result was “binds” in test [1], “no binding” in test [2] and “no binding” in test [3].

(Values after publication PMC6884552, “Glycogen branching enzyme controls cellular iron homeostasis via Iron Regulatory Protein 1 and mitoNEET” (Nature Communications, 2019).)
